We go through one substance from publication PMC5031558.

The chains behind the UniProt entries cited, without tags or fusion partners. Where a name states a change or a piece, a line headed by the entry shows the natural chain unless it says otherwise.
UniProt Q9NQC7: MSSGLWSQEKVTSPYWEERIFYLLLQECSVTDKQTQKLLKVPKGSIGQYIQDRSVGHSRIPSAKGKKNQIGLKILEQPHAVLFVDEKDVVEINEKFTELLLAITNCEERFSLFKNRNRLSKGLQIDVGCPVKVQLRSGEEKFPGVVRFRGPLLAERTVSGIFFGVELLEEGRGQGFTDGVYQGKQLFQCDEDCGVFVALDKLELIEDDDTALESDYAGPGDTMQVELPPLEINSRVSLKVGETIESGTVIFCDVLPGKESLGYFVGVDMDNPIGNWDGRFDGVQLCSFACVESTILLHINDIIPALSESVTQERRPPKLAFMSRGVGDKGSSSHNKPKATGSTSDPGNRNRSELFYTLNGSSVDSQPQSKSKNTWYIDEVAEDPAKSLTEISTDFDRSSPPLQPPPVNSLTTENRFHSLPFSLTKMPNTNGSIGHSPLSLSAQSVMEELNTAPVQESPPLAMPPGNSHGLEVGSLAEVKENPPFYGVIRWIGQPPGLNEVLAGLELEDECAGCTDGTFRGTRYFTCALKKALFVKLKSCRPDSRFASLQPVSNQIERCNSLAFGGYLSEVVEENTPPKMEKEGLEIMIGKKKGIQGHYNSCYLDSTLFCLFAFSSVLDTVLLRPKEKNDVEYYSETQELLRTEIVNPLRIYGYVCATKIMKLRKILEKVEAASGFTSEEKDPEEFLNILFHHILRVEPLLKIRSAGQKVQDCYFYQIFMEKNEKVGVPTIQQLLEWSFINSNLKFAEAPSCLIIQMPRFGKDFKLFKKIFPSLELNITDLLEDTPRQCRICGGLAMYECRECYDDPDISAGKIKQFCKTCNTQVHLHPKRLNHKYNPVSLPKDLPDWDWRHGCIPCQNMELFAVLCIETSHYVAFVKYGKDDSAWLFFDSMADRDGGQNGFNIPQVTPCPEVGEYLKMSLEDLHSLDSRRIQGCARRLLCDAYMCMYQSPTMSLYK

These are yes or no findings as the source states them, for the method shown. Binding calls can cover weak binding; strength is not graded here.

The experiment has as its target T1, SPATA2 PUB domain (aa 1–241) (UniProt Q9UM82).
T1 sequence: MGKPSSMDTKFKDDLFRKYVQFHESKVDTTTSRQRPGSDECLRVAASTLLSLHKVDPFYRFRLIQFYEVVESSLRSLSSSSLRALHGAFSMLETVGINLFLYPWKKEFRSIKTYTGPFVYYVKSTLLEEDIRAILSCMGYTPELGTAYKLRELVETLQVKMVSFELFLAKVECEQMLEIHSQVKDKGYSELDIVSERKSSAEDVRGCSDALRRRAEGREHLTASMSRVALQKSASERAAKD
As to the kind of experiment: SPR; fraction of CYLD variant bound to SPATA2 PUB against varying CYLD concentrations; kinetic and equilibrium fits; both purified. For orientation: In SPR one partner is held on a chip, and binding of the other changes the refractive index at the surface.

Consider “CYLD ΔB-box (purified USP domain without the B-box) (from UniProt Q9NQC7) (domain or fragment)”, for which the binding result is listed as “binds weakly”.
